Results taken from PMC9041338.
These are yes or no findings as the source states them, for the method shown.

Biological target: T1, Yap8 (S. cerevisiae) (UniProt Q06596)
T1 sequence: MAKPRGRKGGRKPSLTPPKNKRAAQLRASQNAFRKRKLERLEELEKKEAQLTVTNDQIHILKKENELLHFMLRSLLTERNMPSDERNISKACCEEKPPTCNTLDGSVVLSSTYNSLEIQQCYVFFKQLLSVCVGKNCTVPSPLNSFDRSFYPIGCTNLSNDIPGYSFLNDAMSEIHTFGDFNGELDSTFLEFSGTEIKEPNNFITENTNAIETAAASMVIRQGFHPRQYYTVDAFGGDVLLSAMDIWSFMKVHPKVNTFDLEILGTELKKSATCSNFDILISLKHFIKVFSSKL
Assay: two-hybrid; dedicated yeast two-hybrid assay; full-length Yap8 as bait, full-length Etp1 as prey; told only in the discussion, no methods or figure

B1: Etp1 (protein, UniProt P38748 1-585)
chain: MDQFEYIITLEFGNQNQVESAYQIFKSIPKKLKAKSIGEESIKSNNQDWQDWRVCDLEIDMITDFKNQTSKEEESDLITSQYLGHGIIRLFKLSNANNTLNEKEILTIPGDDTMICILFVPTYFTVHDLLHFYIGDDIVNKQVSNFRILRNQQKGMGFNFTVLIKFRNALDAKNFKEEFNGKSFSRMDPETCHVISVKEIVFQKKLFQRPAANEDFPYLLTDPFTVKKKKELVKVELPTCPVCLERMDSETTGLVTIPCQHTFHCQCLNKWKNSRCPVCRHSSLRLSRESLLKQAGDSAHCATCGSTDNLWICLICGNVGCGRYNSKHAIKHYEETLHCFAMDIRTQRVWDYAGDNYVHRLVQNEVDGKLVEVGGSGDDDNNDIGNSDELQNVVYGNRSKNGEKSNSNKKDGELAANFLRHREYHLEYVQVLISQLESQREYYELKLQEKDQTASDSSNVESLKKSMEDLKLQFQVTQKEWQKREMAQKSKLEEDMLVIEGLQANLDHLSKKQEQLERENKALEESKQDLEEQVKDLMFYLDSQEKFKDADESVKEGTILIQQPHGAAQASKSKKKRNKNKKAGK
**Q.** For B1, which binding is on record?
**A.** no binding
